No constants are given. Whether binding was seen depends on the method and setting. In cells and extracts the contact can be indirect. Binding calls can cover weak binding; strength is not graded here. Tags and fused reporters may be left off the sequences shown.

The assay has as its target myc-tagged RicA (Brucella abortus) (UniProt Q2YQG1). As to the kind of experiment: co-IP.

B1: GFP-tagged Rab2a S20N (dominant-negative) (protein, UniProt P61019 1-212)
chain: MAYAYLFKYIIIGDTGVGKNCLLLQFTDKRFQPVHDLTIGVEFGARMITIDGKQIKLQIWDTAGQESFRSITRSYYRGAAGALLVYDITRRDTFNHLTTWLEDARQHSNSNMVIMLIGNKSDLESRREVKKEEGEAFAREHGLIFMETSAKTASNVEEAFINTAKEIYEKIQEGVFDINNEANGIKIGPQHAATNATHAGNQGGQQAGGGCC
Consider B1, for which the binding entry is “binds”.

(Values after article PMC7157780.)
